Source: PubChem BioAssay AID445 (National Center for Advancing Translational Sciences (NCATS), 2006)
The other results are listed elsewhere or left out. The main result of the screen is listed elsewhere. These columns were measured beside it and carry no call. Compounds called inactive in the main read-out are mostly missing here. The note in brackets gives the kind of curve behind each potency; many fits are weak.

Assay: IkB Signaling
Conditions: ABC-DLBCL IkBa-CBG/CBR dual luciferase ratio (green luciferase fused to IkBa over red control in OCI-Ly3 lymphoma cells), 4 h
In short: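 Luminescence ratio of IκBα-fused green versus native red beetle luciferase in OCI-Ly3 cells, 4 h post-doxycycline with compound; red signal alone, scaled from basal (0%) to zero light (-100%), flagged nonspecific or cytotoxic effects.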

[1] = measured here: IkB-luc green channel
[2] = measured here: control luc red channel
[3] = measured here: control luc red channel unless noted

O=C(Nc1ncc(Br)s1)C(Cc1ccccc1)n1cccc1 (stereo not given)
AC50 [1]: 12.6 µM [falling, partial curve]
AC50 [2]: 10 µM [falling, partial curve]

COc1cc2c(=O)n(CCC(=O)NCC3CCCO3)c(=O)n(CC(=O)Nc3ccccc3C)c2cc1OC (stereo not given)
AC50 [3]: 5.01 µM [falling, partial curve]

CCCCOc1ccc(CNC(=O)c2cccc(NC(=O)N3CCSc4ncccc43)c2)cc1
AC50 [3]: 15.8 µM [falling, partial curve]

COc1ccc(-n2ncc3c(NCCCOC(C)C)ncnc32)cc1
AC50 [3]: 31.6 µM [falling, partial curve]

O=C(CCc1nc(CN2CCN(S(=O)(=O)c3ccc(Br)cc3)CC2)no1)N1CCCCC1
AC50 [3]: 20 µM [falling, single point]

COc1cc2cc(CNc3ccccc3)c(=O)n(CC(=O)Nc3cccc(Cl)c3C)c2cc1OC
AC50 [3]: 25.1 µM [falling, single point]

Cc1cccc(N2CCN(C(c3ccccc3)c3nnnn3CC3CCCO3)CC2)c1C (stereo not given)
AC50 [3]: 20 µM [falling, partial curve]

Cc1ccccc1Cn1cc(S(=O)(=O)CC(=O)Nc2nccs2)c2ccccc21
AC50 [3]: 10 µM [falling, partial curve]

Cc1cccc(N2C(=O)CC(N(O)c3ccccc3)C2=O)c1 (stereo not given)
AC50 [3]: 12.6 µM [falling, partial curve]

Cc1ccc(-n2c3c(cc(C(=O)Nc4ccccc4C(N)=O)c2=O)C(=O)CC(C)(C)C3)cc1
AC50 [3]: 10 µM [falling, partial curve]

CCOc1ccccc1NC(=O)c1c(NC(=O)COc2ccccc2)sc2c1CCCC2
AC50 [3]: 12.6 µM [falling, partial curve]

COc1ccc(C2=Nc3ccccc3NC(c3cccs3)=N2)cc1
AC50 [3]: 25.1 µM [falling, single point]

O=C1CC(c2ccccc2)Sc2ccccc2N1Cc1ccc(F)cc1 (stereo not given)
AC50 [3]: 20 µM [falling, partial curve]

CC(C)(C)C(=O)CSc1nccc(=O)[nH]1
AC50 [3]: 31.6 µM [rising, single point]

CCCc1cc(=O)[nH]c(Nc2cc(C)ccc2OC)n1
AC50 [3]: 0.794 µM [falling, partial curve]

CC(Sc1nnc2ccc3ccccc3n12)C(=O)Nc1ccc(Cl)cc1 (stereo not given)
AC50 [3]: 3.16 µM [falling, partial curve]

COc1ccccc1NC(=O)Cn1c(SCC(=O)Nc2ccc(F)cc2)nc2ccccc21
AC50 [3]: 12.6 µM [falling, partial curve]

Cc1nc2ccn(Cc3ccccc3)c(=O)c2cc1C(=O)N1CCN(c2ccc(F)cc2)CC1
AC50 [3]: 31.6 µM [falling, single point]

O=S(=O)(c1ccc(N2CC=C(c3ccccc3)CC2)nc1)N1CCCC1
AC50 [3]: 39.8 µM [rising, single point] [measured here: IkB-luc green channel]

CCc1ccc(NC(=O)CC2C(=O)N(c3cccc(OC)c3)C(=O)N2Cc2ccc(F)cc2)cc1 (stereo not given)
AC50 [3]: 12.6 µM [falling, partial curve]

COCCc1nn2c(=O)cc(COC(=O)C(c3ccccc3)c3ccccc3)nc2s1
AC50 [3]: 25.1 µM [falling, partial curve, poor fit]

CCN(CC)c1ccc(NC(=O)c2cccn2-c2nnc(N3CCCCC3)s2)c(C)c1
AC50 [3]: 25.1 µM [falling, partial curve]

Cc1c(Cl)cccc1-n1ncc(C(=O)N2CCN(c3ncccn3)CC2)c1C1CCN(C(=O)OC(C)(C)C)CC1
AC50 [3]: 39.8 µM [falling, single point]

Cc1ccc(NC(=O)C(Cc2ccccc2)NS(=O)(=O)c2ccc3c(c2)c(=O)n(C)c(=O)n3C)c(C)c1 (stereo not given)
AC50 [3]: 25.1 µM [falling, partial curve]

OC[C@@H]1O[C@@H](n2cnc3c(Nc4ccccc4)ncnc32)[C@@H](O)[C@H]1O
AC50 [3]: 1.26 µM [rising, full curve] [measured here: IkB-luc green channel]

COc1ccccc1CNC(=O)c1c[nH]c2ccc(S(=O)(=O)Nc3cc(C)cc(C)c3)cc2c1=O
AC50 [3]: 20 µM [falling, partial curve]

CCCOc1ccc(CNC(=O)CCCn2ncn3c(cc4sc(CC)cc43)c2=O)cc1
AC50 [3]: 15.8 µM [falling, single point]

COc1ccccc1OCC(=O)Nc1ccc(O)cc1C(=O)O
AC50 [3]: 0.501 µM [falling, full curve]

CCCOc1ccc(NC(=O)CC2C(=O)N(c3ccccc3)C(=O)N2Cc2ccco2)cc1 (stereo not given)
AC50 [3]: 10 µM [falling, partial curve, poor fit]

CCNS(=O)(=O)c1ccc(NC(=O)CSc2nc(-c3ccco3)cc(C(F)(F)F)n2)cc1
AC50 [3]: 39.8 µM [falling, single point]

COc1cccc(NC(=O)CCC(=O)N2Cc3ccccc3Oc3ncccc32)c1
AC50 [3]: 20 µM [falling, partial curve, poor fit]

CC(C)OC(=O)c1cccc(NC(=O)Cn2nnc3sc4c(c3c2=O)CCCC4)c1
AC50 [3]: 15.8 µM [falling, partial curve]

COc1cccc(Nc2ncc3nc(C)c(=O)n(C)c3n2)c1
AC50 [3]: 3.16 µM [falling, partial curve] [measured here: IkB-luc green channel]

Cc1ccc(-n2cc(-c3ccccc3)c3c(N4CCCCC4)ncnc32)cc1
AC50 [3]: 3.16 µM [falling, partial curve]

Cc1cccc(Nc2nnc(-c3ccc(C)c(S(=O)(=O)N4CCCCC4)c3)c3ccccc23)c1
AC50 [3]: 0.398 µM [falling, full curve]

CC(=O)c1cc(C(=O)Nc2ccccc2C(=O)O)oc1C
AC50 [3]: 0.316 µM [falling, full curve]

CCOC(=O)CCS(=O)(=O)c1nc(-c2ccccc2)cc(C(F)(F)F)n1
AC50 [1]: 10 µM [falling, partial curve]
AC50 [2]: 3.98 µM [falling, full curve]

O=C(Nc1cc(Cl)cc(Cl)c1)c1ccc(F)c(S(=O)(=O)NCc2ccccc2Cl)c1
AC50 [3]: 31.6 µM [falling, partial curve]
